These are yes or no findings as the source states them, for the method shown. In cells and extracts the contact can be indirect. Some results given as binding are weak or reduced against the parent protein; the word gives no strength. Sequences can lack the tags named with a protein.
Assays:
[1] = molecular target: T1, IBH1–cYFP (ILI1 BINDING bHLH PROTEIN1 fused to the C-terminal half of YFP) (Arabidopsis thaliana) (UniProt Q9SKX1); experiment: split reporter; BiFC: nYFP and cYFP fusions co-transformed into A. thaliana mesophyll protoplasts; YFP signal seen by confocal microscopy
T1 sequence: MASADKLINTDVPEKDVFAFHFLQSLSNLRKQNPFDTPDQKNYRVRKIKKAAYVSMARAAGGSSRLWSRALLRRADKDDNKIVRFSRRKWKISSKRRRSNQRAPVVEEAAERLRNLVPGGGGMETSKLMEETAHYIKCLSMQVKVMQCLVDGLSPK

[2] = molecular target: T2, HBI1–cYFP (HOMOLOG OF BEE2 … WITH IBH1 fused to the C-terminal half of YFP) (Arabidopsis thaliana) (UniProt Q9ZPW3); experiment: as above
T2 sequence: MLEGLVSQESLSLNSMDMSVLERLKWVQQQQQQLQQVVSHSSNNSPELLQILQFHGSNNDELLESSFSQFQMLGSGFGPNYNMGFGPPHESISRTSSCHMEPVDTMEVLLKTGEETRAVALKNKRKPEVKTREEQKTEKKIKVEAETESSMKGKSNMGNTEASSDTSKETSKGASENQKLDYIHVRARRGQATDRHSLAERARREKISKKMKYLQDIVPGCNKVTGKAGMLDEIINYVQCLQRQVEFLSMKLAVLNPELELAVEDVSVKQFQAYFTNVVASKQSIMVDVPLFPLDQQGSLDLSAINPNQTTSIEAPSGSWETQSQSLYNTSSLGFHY

B1: HBI1–nYFP (HOMOLOG OF BEE2 … WITH IBH1 fused to the N-terminal half of YFP) (protein, UniProt Q9ZPW3 1-337)
chain: MLEGLVSQESLSLNSMDMSVLERLKWVQQQQQQLQQVVSHSSNNSPELLQILQFHGSNNDELLESSFSQFQMLGSGFGPNYNMGFGPPHESISRTSSCHMEPVDTMEVLLKTGEETRAVALKNKRKPEVKTREEQKTEKKIKVEAETESSMKGKSNMGNTEASSDTSKETSKGASENQKLDYIHVRARRGQATDRHSLAERARREKISKKMKYLQDIVPGCNKVTGKAGMLDEIINYVQCLQRQVEFLSMKLAVLNPELELAVEDVSVKQFQAYFTNVVASKQSIMVDVPLFPLDQQGSLDLSAINPNQTTSIEAPSGSWETQSQSLYNTSSLGFHY
With B1 the binding [1] was “binds”.

B2: BEE2–nYFP (BRASSINOSTEROID ENHANCED EXPRESSION2 fused to the N-terminal half of YFP) (protein, UniProt Q93VJ4 1-304)
chain: MDLSVLDRLKWLQQQQMVSPEFLQILGSDGREELKRVESYLGNNNDELQSFRHFPEFGPDYDTTDGCISRTSSFHMEPVKNNGHSRAITLQNKRKPEGKTEKREKKKIKAEDETEPSMKGKSNMSNTETSSEIQKPDYIHVRARRGEATDRHSLAERARREKISKKMKCLQDIVPGCNKVTGKAGMLDEIINYVQSLQQQVEFLSMKLSVINPELECHIDDLSAKQFQAYFTGPPEGDSKQSIMADFRSFPLHQQGSLDYSVINSDHTTSLGAKDHTSSSWETHSQCLYNSLRTDSVSNFFSLK
For B2, the binding [1] was “binds” and the binding [2] was “binds”.
